Results from one PubChem assay

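A panel of P. falciparum strains inside erythrocytes is exposed to compounds for three days, then a DNA-binding dye reports the amount of parasite DNA.
Each compound was titrated across a series from about 0.000037 to 29 µM.
The number is the fitted AC50, the concentration giving a half-maximal change in signal; a lower value means higher potency, whether the curve shows a decrease or an increase.
Calls follow the curve class and fit quality: every row here is inconclusive, covering signal-raising curves and weak, poorly fitted, partial or highest-dose-only inhibition curves.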

Values are in µM.
Every entry below has the call inconclusive.
These entries are mostly ones the record files as inconclusive; other results of the assay are not listed here.
Potencies fitted to partial, single-point or poorly fitting curves are rough.
Some entries filed as inconclusive have a full curve.

compound	condition	Potency (µM)	curve
CCN(CC)CCN1C(=O)CN=C(c2ccccc2F)c2cc(Cl)ccc21	CP335	3.793	inhibitor, partial curve, poor fit
CCN(CC)CCN1C(=O)CN=C(c2ccccc2F)c2cc(Cl)ccc21	CP211	7.569	inhibitor, partial curve
CCN(CC)CCN1C(=O)CN=C(c2ccccc2F)c2cc(Cl)ccc21	ICS	11.22	inhibitor, single point
CCN(CC)CCN1C(=O)CN=C(c2ccccc2F)c2cc(Cl)ccc21	CP194	7.569	inhibitor, partial curve
CCN(CC)CCN1C(=O)CN=C(c2ccccc2F)c2cc(Cl)ccc21	ATS95	8.912	inhibitor, single point
CCN(CC)CCN1C(=O)CN=C(c2ccccc2F)c2cc(Cl)ccc21	CP329	15.1	inhibitor, partial curve, poor fit
CCN(CC)CCN1C(=O)CN=C(c2ccccc2F)c2cc(Cl)ccc21	CP203	9.528	inhibitor, partial curve
CCN(CC)CCN1C(=O)CN=C(c2ccccc2F)c2cc(Cl)ccc21	Dd2	7.943	inhibitor, partial curve, poor fit
CCN(CC)CCN1C(=O)CN=C(c2ccccc2F)c2cc(Cl)ccc21	AA1029	11.22	inhibitor, single point
CCN(CC)CCN1C(=O)CN=C(c2ccccc2F)c2cc(Cl)ccc21	CP238	10	inhibitor, single point
CCN(CC)CCN1C(=O)CN=C(c2ccccc2F)c2cc(Cl)ccc21	CP237	2.818	inhibitor, full curve
CCN(CC)CCN1C(=O)CN=C(c2ccccc2F)c2cc(Cl)ccc21	P94_40	17.78	inhibitor, single point
CCN(CC)CCN1C(=O)CN=C(c2ccccc2F)c2cc(Cl)ccc21	ATS189	7.943	inhibitor, single point
CCN(CC)CCN1C(=O)CN=C(c2ccccc2F)c2cc(Cl)ccc21	GB4	2.686	inhibitor, partial curve
CCN(CC)CCN1C(=O)CN=C(c2ccccc2F)c2cc(Cl)ccc21	P93_24	10	inhibitor, single point
CCN(CC)CCN1C(=O)CN=C(c2ccccc2F)c2cc(Cl)ccc21	DIV14	6.746	inhibitor, partial curve
CCn1cc(C(=O)O)c(=O)c2cc(F)c(N3CCNCC3)cc21	CP194	3.612	inhibitor, single point
CCn1cc(C(=O)O)c(=O)c2cc(F)c(N3CCNCC3)cc21	CP268	4.053	inhibitor, partial curve
CCn1cc(C(=O)O)c(=O)c2cc(F)c(N3CCNCC3)cc21	CP256	3.162	inhibitor, partial curve, poor fit
CCn1cc(C(=O)O)c(=O)c2cc(F)c(N3CCNCC3)cc21	CP237	3.162	inhibitor, single point
CCn1cc(C(=O)O)c(=O)c2cc(F)c(N3CCNCC3)cc21	CP291	3.22	inhibitor, partial curve
CCn1cc(C(=O)O)c(=O)c2cc(F)c(N3CCNCC3)cc21	GB4	9.074	inhibitor, partial curve, poor fit
CCn1cc(C(=O)O)c(=O)c2cc(F)c(N3CCNCC3)cc21	P94_40	6.31	inhibitor, single point
CCn1cc(C(=O)O)c(=O)c2cc(F)c(N3CCNCC3)cc21	CP266	9.074	inhibitor, single point
CCn1cc(C(=O)O)c(=O)c2cc(F)c(N3CCNCC3)cc21	CP269	6.424	inhibitor, partial curve, poor fit
CCn1cc(C(=O)O)c(=O)c2cc(F)c(N3CCNCC3)cc21	P93_24	2.239	inhibitor, partial curve
CCn1cc(C(=O)O)c(=O)c2cc(F)c(N3CCNCC3)cc21	CP252	3.162	inhibitor, single point
CCn1cc(C(=O)O)c(=O)c2cc(F)c(N3CCNCC3)cc21	CP325	6.424	inhibitor, single point
CCn1cc(C(=O)O)c(=O)c2cc(F)c(N3CCNCC3)cc21	CP335	8.087	inhibitor, single point
CCn1cc(C(=O)O)c(=O)c2cc(F)c(N3CCNCC3)cc21	CP286	3.162	inhibitor, partial curve
CCn1cc(C(=O)O)c(=O)c2cc(F)c(N3CCNCC3)cc21	TAB109	2.512	inhibitor, partial curve, poor fit
CCn1cc(C(=O)O)c(=O)c2cc(F)c(N3CCNCC3)cc21	Dd2	5.012	inhibitor, single point
CCn1cc(C(=O)O)c(=O)c2cc(F)c(N3CCNCC3)cc21	CP297	4.053	inhibitor, single point
CCn1cc(C(=O)O)c(=O)c2cc(F)c(N3CCNCC3)cc21	DFO2036	3.981	inhibitor, single point
CCn1cc(C(=O)O)c(=O)c2cc(F)c(N3CCNCC3)cc21	N140	3.548	inhibitor, single point
CC[C@@]1(O)CC2CN(CCc3c([nH]c4ccccc34)[C@](C(=O)OC)(c3cc4c(cc3OC)N(C)C3[C@@](O)(C(=O)OC)C(OC(C)=O)[C@]5(CC)C=CCN6CC[C@@]43C65)C2)C1 (some centres undefined)	CP291	2.133	inhibitor, full curve

Source: PubChem BioAssay AID504749 (NCATS, 2011).